The results in this text go back to PMC10472371, “Discovery of E2730, a novel selective uncompetitive GAT1 inhibitor, as a candidate for anti‐seizure medication” (Epilepsia Open, 2023).

The structures appear in SMILES notation.

The subject of the data set is corneal kindling mice. Briefly: Corneal kindling in mice. The format is in vivo, mouse.
Setting [1] is: rotarod TD50 / corneal kindling ED50, worked out from literature values.

Consider `CCC1(C)CC(=O)NC1=O` (centres unmarked) [Ethosuximide, ethosuximide], for which the “Protective index (i.e., TD50/ED50)” value under setting [1] is on record as below 1.3.

Take `CC[C@@H](C(N)=O)N1CCCC1=O` [Levetiracetam, levetiracetam]: the “Protective index (i.e., TD50/ED50)” value under setting [1] was above 31.2.

For the compound `NS(=O)(=O)N[C@H]1c2c(F)cc(F)cc2CC1(F)F` [E2730], under “rotarod TD50 / corneal kindling ED50, from the authors' own values”, the “Protective index (i.e., TD50/ED50)” value came out at 44.3.

As for `Cc1ccsc1C(=CCCN1CCC[C@@H](C(=O)O)C1)c1sccc1C` [Tiagabine, tiagabine], under setting [1], the “Protective index (i.e., TD50/ED50)” value is 2.5.

With `O=C1CN=C(c2ccccc2Cl)c2cc([N+](=O)[O-])ccc2N1` [Clonazepam, clonazepam], the “Protective index (i.e., TD50/ED50)” value under setting [1] is 6.5.
